Source: PubChem BioAssay AID1259308 (NCATS, 2017)

Aim: 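Candidate targets for better recombinant protein yield in mammalian cells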 (primary screen)
Cell system: human HEK293 embryonic kidney cells stably expressing firefly luciferase (HEK-CMV-Luc2-Hygro)
Reagents: single siRNA against human genes, 0.8 pmol siRNA per well
Timing: 72 h
Measured: 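Luciferase light (ONE-Glo) measured on one replicate plate set and viability (CellTiter-Glo) on the other, scaled to a negative control siRNA, with robust z-scores and luciferase per cell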
Direction: total luciferase, z-score: higher = more reporter protein produced
Hit rule: 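An siRNA counts as active if its total luciferase robust z-score exceeds 3; genes with two or more such siRNAs out of three were retested with fresh siRNAs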
Meaning of the calls: active = raised luciferase; inactive = no rise
This is a random part of about 59,000 reagents tested. In the full data, about 1,510 (2.6%) were called active. 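Calls use total luciferase alone and ignore viability, so some active siRNAs may act by altering cell number.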 Reagents against one gene are numbered here. Not all columns of the deposit are shown.

The opening 9 entries, to show the layout:
Gene | reagent no. | total luciferase, z-score | Outcome
TNFRSF10D (TNF receptor superfamily member 10d) | 1 | 0.00451 | inactive
TNFRSF10D (TNF receptor superfamily member 10d) | 2 | 2.25 | inactive
TNFRSF10D (TNF receptor superfamily member 10d) | 3 | -0.0469 | inactive
HOOK1 (hook microtubule tethering protein 1) | 1 | -0.0404 | inactive
HOOK1 (hook microtubule tethering protein 1) | 2 | -0.613 | inactive
HOOK1 (hook microtubule tethering protein 1) | 3 | 1.67 | inactive
C1orf226 (chromosome 1 open reading frame 226) | 1 | -0.566 | inactive
C1orf226 (chromosome 1 open reading frame 226) | 2 | 0.403 | inactive
C1orf226 (chromosome 1 open reading frame 226) | 3 | -1.35 | inactive

The list itself, from the start:
Gene | reagent no. | total luciferase, z-score | Outcome
TNFRSF10D (TNF receptor superfamily member 10d) | 1 | 0.00451 | inactive
TNFRSF10D (TNF receptor superfamily member 10d) | 2 | 2.25 | inactive
TNFRSF10D (TNF receptor superfamily member 10d) | 3 | -0.0469 | inactive
HOOK1 (hook microtubule tethering protein 1) | 1 | -0.0404 | inactive
HOOK1 (hook microtubule tethering protein 1) | 2 | -0.613 | inactive
HOOK1 (hook microtubule tethering protein 1) | 3 | 1.67 | inactive
C1orf226 (chromosome 1 open reading frame 226) | 1 | -0.566 | inactive
C1orf226 (chromosome 1 open reading frame 226) | 2 | 0.403 | inactive
C1orf226 (chromosome 1 open reading frame 226) | 3 | -1.35 | inactive
RSBN1L (round spermatid basic protein 1 like) | 1 | 0.555 | inactive
RSBN1L (round spermatid basic protein 1 like) | 2 | -1.41 | inactive
RSBN1L (round spermatid basic protein 1 like) | 3 | 1.13 | inactive
GGPS1 (geranylgeranyl diphosphate synthase 1) | 1 | -0.636 | inactive
GGPS1 (geranylgeranyl diphosphate synthase 1) | 2 | -0.988 | inactive
GGPS1 (geranylgeranyl diphosphate synthase 1) | 3 | 0.608 | inactive
TCL1B (TCL1 family AKT coactivator B) | 1 | 1.04 | inactive
TCL1B (TCL1 family AKT coactivator B) | 2 | -1.3 | inactive
TCL1B (TCL1 family AKT coactivator B) | 3 | 0.267 | inactive
LAX1 (lymphocyte transmembrane adaptor 1) | 1 | -0.435 | inactive
LAX1 (lymphocyte transmembrane adaptor 1) | 2 | -0.562 | inactive
LAX1 (lymphocyte transmembrane adaptor 1) | 3 | -0.418 | inactive
TRMT10C (tRNA methyltransferase 10C, mitochondrial RNase P subunit) | 1 | 1.56 | inactive
TRMT10C (tRNA methyltransferase 10C, mitochondrial RNase P subunit) | 2 | -0.0248 | inactive
TRMT10C (tRNA methyltransferase 10C, mitochondrial RNase P subunit) | 3 | 0.923 | inactive
TBC1D2B (TBC1 domain family member 2B) | 1 | 0.594 | inactive
TBC1D2B (TBC1 domain family member 2B) | 2 | 1.09 | inactive
TBC1D2B (TBC1 domain family member 2B) | 3 | 4.15 | active
MRI1 (methylthioribose-1-phosphate isomerase 1) | 1 | -0.52 | inactive
MRI1 (methylthioribose-1-phosphate isomerase 1) | 2 | -0.118 | inactive
MRI1 (methylthioribose-1-phosphate isomerase 1) | 3 | -0.0538 | inactive
ZNF444 (zinc finger protein 444) | 1 | -0.0697 | inactive
ZNF444 (zinc finger protein 444) | 2 | 2.5 | inactive
ZNF444 (zinc finger protein 444) | 3 | -2.07 | inactive
SIRT2 (sirtuin 2) | 1 | -1.1 | inactive
SIRT2 (sirtuin 2) | 2 | 0.0343 | inactive
SIRT2 (sirtuin 2) | 3 | 0.0237 | inactive
PRSS58 (serine protease 58) | 1 | -0.324 | inactive
PRSS58 (serine protease 58) | 2 | 0.0528 | inactive
PRSS58 (serine protease 58) | 3 | -1.02 | inactive
ZXDC (ZXD family zinc finger C) | 1 | -0.223 | inactive
ZXDC (ZXD family zinc finger C) | 2 | 2.02 | inactive
ZXDC (ZXD family zinc finger C) | 3 | 1.57 | inactive
F11 (coagulation factor XI) | 1 | 0.217 | inactive
F11 (coagulation factor XI) | 2 | -0.838 | inactive
F11 (coagulation factor XI) | 3 | -0.0353 | inactive
TMEM176A (transmembrane protein 176A) | 1 | 0.699 | inactive
TMEM176A (transmembrane protein 176A) | 2 | 1.2 | inactive
TMEM176A (transmembrane protein 176A) | 3 | 0.374 | inactive
ANPEP (alanyl aminopeptidase, membrane) | 1 | 0.0522 | inactive
ANPEP (alanyl aminopeptidase, membrane) | 2 | -0.0465 | inactive
ANPEP (alanyl aminopeptidase, membrane) | 3 | -0.739 | inactive
ARMC7 (armadillo repeat containing 7) | 1 | 0.211 | inactive
ARMC7 (armadillo repeat containing 7) | 2 | -0.621 | inactive
ARMC7 (armadillo repeat containing 7) | 3 | 0.619 | inactive
KRTAP4-4 (keratin associated protein 4-4) | 1 | -1.17 | inactive
KRTAP4-4 (keratin associated protein 4-4) | 2 | -2.42 | inactive
KRTAP4-4 (keratin associated protein 4-4) | 3 | -0.439 | inactive
PDK1 (pyruvate dehydrogenase kinase 1) | 1 | -0.145 | inactive
PDK1 (pyruvate dehydrogenase kinase 1) | 2 | -0.156 | inactive
PDK1 (pyruvate dehydrogenase kinase 1) | 3 | -0.378 | inactive
PIK3R3 (phosphoinositide-3-kinase regulatory subunit 3) | 1 | 0.93 | inactive
PIK3R3 (phosphoinositide-3-kinase regulatory subunit 3) | 2 | 3.71 | active
PIK3R3 (phosphoinositide-3-kinase regulatory subunit 3) | 3 | 0.943 | inactive
ARPP19 (cAMP regulated phosphoprotein 19) | 1 | -0.136 | inactive
ARPP19 (cAMP regulated phosphoprotein 19) | 2 | -0.212 | inactive
ARPP19 (cAMP regulated phosphoprotein 19) | 3 | 1.6 | inactive
FDX1 (ferredoxin 1) | 1 | -0.67 | inactive
FDX1 (ferredoxin 1) | 2 | -0.326 | inactive
FDX1 (ferredoxin 1) | 3 | -0.0157 | inactive
NUDT9 (nudix hydrolase 9) | 1 | -0.929 | inactive
NUDT9 (nudix hydrolase 9) | 2 | -0.357 | inactive
NUDT9 (nudix hydrolase 9) | 3 | -0.33 | inactive
PES1 (pescadillo ribosomal biogenesis factor 1) | 1 | -2 | inactive
PES1 (pescadillo ribosomal biogenesis factor 1) | 2 | -0.315 | inactive
PES1 (pescadillo ribosomal biogenesis factor 1) | 3 | -0.888 | inactive
